The results in this text go back to paper PMC3630886.

By UniProt entry, the sequences of proteins in these tests, tags left out. Where a name states a change or a piece, a line headed by the entry shows the natural chain unless it says otherwise.
UniProt P84077: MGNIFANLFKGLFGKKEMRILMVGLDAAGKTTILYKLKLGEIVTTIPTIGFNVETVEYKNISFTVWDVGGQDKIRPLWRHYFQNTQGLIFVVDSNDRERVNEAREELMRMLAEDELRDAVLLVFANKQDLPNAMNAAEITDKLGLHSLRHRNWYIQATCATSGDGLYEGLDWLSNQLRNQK
UniProt P18085: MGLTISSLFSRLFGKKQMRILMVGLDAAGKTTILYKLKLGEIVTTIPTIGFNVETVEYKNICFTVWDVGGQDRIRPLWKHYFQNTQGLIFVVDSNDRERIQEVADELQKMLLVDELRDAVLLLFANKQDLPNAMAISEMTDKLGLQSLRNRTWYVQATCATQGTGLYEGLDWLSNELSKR
UniProt P84085: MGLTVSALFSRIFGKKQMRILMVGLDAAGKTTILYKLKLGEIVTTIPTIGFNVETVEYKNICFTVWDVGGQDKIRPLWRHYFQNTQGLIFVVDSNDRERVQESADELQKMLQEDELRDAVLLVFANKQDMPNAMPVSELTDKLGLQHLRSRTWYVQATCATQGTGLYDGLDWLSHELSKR

These are yes or no findings as the source states them, for the method shown. Binding seen in cells or lysates may run through a third protein. A result given as binding can be weak or reduced; the word gives no strength. For part of these data: Where a sequence is shown, tags or fusion partners need not be part of it.

The target of one experiment is T1, GST-BIG2/1–548 (UniProt Q9Y6D5).
T1 sequence: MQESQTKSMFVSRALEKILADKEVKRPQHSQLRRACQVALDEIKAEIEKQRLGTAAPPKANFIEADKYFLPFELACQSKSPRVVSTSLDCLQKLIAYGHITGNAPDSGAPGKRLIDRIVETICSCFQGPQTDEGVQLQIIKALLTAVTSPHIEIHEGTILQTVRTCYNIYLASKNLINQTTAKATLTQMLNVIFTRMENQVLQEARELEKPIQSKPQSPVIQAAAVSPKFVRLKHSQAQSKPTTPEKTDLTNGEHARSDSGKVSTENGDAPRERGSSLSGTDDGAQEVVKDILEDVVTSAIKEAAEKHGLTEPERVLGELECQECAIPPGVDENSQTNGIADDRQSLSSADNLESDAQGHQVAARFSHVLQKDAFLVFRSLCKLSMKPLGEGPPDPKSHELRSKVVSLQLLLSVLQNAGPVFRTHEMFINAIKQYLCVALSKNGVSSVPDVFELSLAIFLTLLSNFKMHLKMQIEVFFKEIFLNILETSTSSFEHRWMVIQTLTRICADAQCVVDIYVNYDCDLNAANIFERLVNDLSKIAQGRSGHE
The experiment is described as follows: pull-down; lysates of HeLa cells transfected with HA-tagged ARF Q71L mutants for 24 h incubated with purified GST or GST chimeras of BIG2; input and bound material immunoblotted with anti-HA; only the target purified.

The target in experiment [1] is T2, GST chimera containing the DCB (amino acids 1–250) domain of BIG2 (UniProt Q9Y6D5).
T2 sequence: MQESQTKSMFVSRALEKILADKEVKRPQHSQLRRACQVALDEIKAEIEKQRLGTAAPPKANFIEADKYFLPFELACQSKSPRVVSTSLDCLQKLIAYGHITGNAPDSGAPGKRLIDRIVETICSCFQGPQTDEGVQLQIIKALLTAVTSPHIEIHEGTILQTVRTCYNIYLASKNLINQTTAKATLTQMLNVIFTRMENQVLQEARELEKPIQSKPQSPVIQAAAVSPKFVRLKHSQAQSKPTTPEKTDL
The experiment is described as above.

In experiment [2] the target is BIG2 (endogenous) (human (endogenous in HeLa)) (UniProt Q9Y6D5). The experiment is described as follows: co-IP; HeLa cells transfected with HA-tagged ARF mutants for 24 h; endogenous BIG2 immunoprecipitated from cell lysates; input and bound material immunoblotted with anti-HA. In general terms: In western blotting, separated proteins are transferred to a membrane and probed.

Turning to “ARF1/Q71L, HA-tagged (from UniProt P84077)”, the binding entry is “binds weakly” with GST-BIG2/1–548, “no binding” in experiment [1] and “no binding” in experiment [2].
For “ARF4/Q71L, HA-tagged (from UniProt P18085)”, the binding result (in the experiment with GST-BIG2/1–548; in experiment [1]; in experiment [2]) was “binds” throughout.
Regarding “ARF5/Q71L, HA-tagged (from UniProt P84085)”, the binding entry (with GST-BIG2/1–548; in experiment [1]; in experiment [2]) was “binds” each time.
